PubChem BioAssay AID504784, Drosophila RNAi Screening Center, 2011

Purpose: 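Fly genes whose silencing alters how much lipid cells keep in droplets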 (primary screen)
Cells: Drosophila Kc167 embryonic cells
Reagents: long dsRNA against Drosophila genes, about 250 ng dsRNA per well
Time to read-out: 4 days
Challenge: cells fed 400 µM oleic acid bound to BSA
Read-out: 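Cells imaged and segmented; ratio of lipid droplet area to nuclear area, log-transformed, then normalised as a B-score over the screen; higher means more stored lipid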
Scale: droplet/nuclear area B-score: higher = more stored lipid (overstorage)
In all, the deposit lists about 17,000 reagents; below is a random part of those that have a named target and a result. 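Each column is one replicate's B-score; the combined score over replicates was not deposited, so single values may mislead.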 The numbers tell different reagents against one gene apart. Names joined by + are all predicted targets of the reagent. Not all columns of the deposit are shown.

Against CG31633, the values are droplet/nuclear area B-score, replicate 1 = -0.0573.
With knock-down of CG11095, the record shows droplet/nuclear area B-score, replicate 1 = 1.08.
With knock-down of Rox8, the record shows droplet/nuclear area B-score, replicate 1 = -0.0214.
CG43066 scored droplet/nuclear area B-score, replicate 1 = 1.36.
Phb2 gave droplet/nuclear area B-score, replicate 1 = 2.17.
Against MsR2 + CG13802 (retired record) #1, the entry reads droplet/nuclear area B-score, replicate 1 = -0.156.
For MsR2 + CG13802 (retired record) #2, the entry reads droplet/nuclear area B-score, replicate 1 = -0.0705.
Knock-down of MsR2 + CG13802 (retired record) #3 resulted in: droplet/nuclear area B-score, replicate 1 = 1.36.
After knock-down of Lcch3 #1, the record shows droplet/nuclear area B-score, replicate 1 = -0.691.
Lcch3 #2 scored droplet/nuclear area B-score, replicate 1 = -0.636.
With knock-down of ND-B15, the record shows droplet/nuclear area B-score, replicate 1 = 1.97.
GstD9 scored droplet/nuclear area B-score, replicate 1 = -0.146.
With knock-down of VhaAC39-1, the record shows droplet/nuclear area B-score, replicate 1 = 0.169.
Against CG15458 the deposit lists droplet/nuclear area B-score, replicate 1 = -1.7.
For CG6836, the values are droplet/nuclear area B-score, replicate 1 = -0.901.
Slc45-1 scored droplet/nuclear area B-score, replicate 1 = 2.43.
